These are yes or no findings as the source states them, for the method shown. Some entries that bind do so weakly or less than the wild type.
Legend:
[1] = molecular target: T1, mouse neutrophil elastase (mouse, UniProt Q3UP87 29-265, limits assumed); assay: BLI, comparison of the values in Table 2
T1 sequence (looked up): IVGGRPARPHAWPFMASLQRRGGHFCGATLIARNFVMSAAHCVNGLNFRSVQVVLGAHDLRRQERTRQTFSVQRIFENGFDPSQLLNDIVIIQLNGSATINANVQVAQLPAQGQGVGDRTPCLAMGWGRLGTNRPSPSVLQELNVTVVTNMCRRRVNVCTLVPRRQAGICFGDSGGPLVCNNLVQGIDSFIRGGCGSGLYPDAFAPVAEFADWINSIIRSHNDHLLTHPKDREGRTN

[2] = molecular target: T1, mouse neutrophil elastase; assay: BLI (Octet), biotinylated NbE201 on streptavidin sensors, mNE in solution

B1: biotinylated NbE201 (VHH)
VHH: QVQLQESGGGLVQAGGSLRLSCVVPGRTISLYRMGWFRQAPGKEREFVAGINWSGDMTDYVDSVKGRFTISRDNAKNTVYLEMNSLKPEDTAIYYCTADPKLLPLADSSYGYWGQGTQVTVSS
modifications: C-terminal Cys biotinylated with EZ-Link Maleimide-PEG2-Biotin
notes: Form immobilised on streptavidin sensors in all BLI experiments; It was produced in the pHEN25 vector and biotinylated site-specifically on its C-terminal Cys; also called NbE201_Cter Biot; biotinylated ISVD NbE201
- binding [1]: binds
- binding [2]: binds
